This is one part of the list.
Compound: Cc1cc(ccc1-c1ccccc1)C(=O)N1CCCN(CC1)C(=O)CCl [compound 10]
Assay: probe-labelled cysteine peptide fold change vs DMSO (competition) (log2 fold change); higher = less target engagement (more negative = stronger competition)
Conditions: THP-1, incubation time: 4 h
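Further: competitive profiling in live THP-1 cells: cysteine peptides tagged with an iodoacetamide desthiobiotin (IA-DTB) probe, intensity after compound treatment relative to DMSO-treated cells.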

Sequences of proteins named here, by UniProt entry; tags and fusion partners are left off. A change or cut given only in a name is not applied to a line headed by its entry.
UniProt Q9UPT8: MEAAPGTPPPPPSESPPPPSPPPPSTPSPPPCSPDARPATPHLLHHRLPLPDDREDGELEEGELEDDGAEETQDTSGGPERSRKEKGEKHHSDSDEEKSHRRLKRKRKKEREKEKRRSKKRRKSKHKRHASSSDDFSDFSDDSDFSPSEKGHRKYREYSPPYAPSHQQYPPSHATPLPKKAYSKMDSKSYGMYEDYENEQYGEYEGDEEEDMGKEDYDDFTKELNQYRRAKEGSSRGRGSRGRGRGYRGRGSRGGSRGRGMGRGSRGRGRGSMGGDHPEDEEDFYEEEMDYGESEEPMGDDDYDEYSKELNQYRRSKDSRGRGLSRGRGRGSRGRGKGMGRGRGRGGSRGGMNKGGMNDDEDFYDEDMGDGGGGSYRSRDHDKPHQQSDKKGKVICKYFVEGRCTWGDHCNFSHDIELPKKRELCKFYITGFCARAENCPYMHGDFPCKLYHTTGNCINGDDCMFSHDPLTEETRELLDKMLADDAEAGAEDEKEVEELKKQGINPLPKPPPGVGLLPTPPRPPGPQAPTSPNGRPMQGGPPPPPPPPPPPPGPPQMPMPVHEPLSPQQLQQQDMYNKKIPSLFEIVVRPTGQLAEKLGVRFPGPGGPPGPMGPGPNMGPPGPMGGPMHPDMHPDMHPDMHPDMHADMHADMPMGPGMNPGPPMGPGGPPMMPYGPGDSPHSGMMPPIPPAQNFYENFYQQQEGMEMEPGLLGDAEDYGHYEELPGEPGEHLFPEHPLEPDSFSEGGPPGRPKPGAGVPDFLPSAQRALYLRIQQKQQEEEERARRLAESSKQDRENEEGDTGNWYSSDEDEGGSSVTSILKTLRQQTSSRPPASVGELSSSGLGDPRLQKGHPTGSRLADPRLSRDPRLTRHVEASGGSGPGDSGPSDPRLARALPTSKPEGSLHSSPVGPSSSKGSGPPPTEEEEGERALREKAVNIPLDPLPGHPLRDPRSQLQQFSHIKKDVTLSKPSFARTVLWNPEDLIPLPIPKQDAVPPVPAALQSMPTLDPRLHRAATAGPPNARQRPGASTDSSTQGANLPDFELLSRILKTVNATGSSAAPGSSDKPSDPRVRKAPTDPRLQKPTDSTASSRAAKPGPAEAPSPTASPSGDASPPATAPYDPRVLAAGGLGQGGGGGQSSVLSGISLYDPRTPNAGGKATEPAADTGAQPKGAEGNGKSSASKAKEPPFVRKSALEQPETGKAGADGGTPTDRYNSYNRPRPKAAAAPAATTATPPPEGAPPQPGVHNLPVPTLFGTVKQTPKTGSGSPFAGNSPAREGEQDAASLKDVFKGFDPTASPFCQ
UniProt P62258: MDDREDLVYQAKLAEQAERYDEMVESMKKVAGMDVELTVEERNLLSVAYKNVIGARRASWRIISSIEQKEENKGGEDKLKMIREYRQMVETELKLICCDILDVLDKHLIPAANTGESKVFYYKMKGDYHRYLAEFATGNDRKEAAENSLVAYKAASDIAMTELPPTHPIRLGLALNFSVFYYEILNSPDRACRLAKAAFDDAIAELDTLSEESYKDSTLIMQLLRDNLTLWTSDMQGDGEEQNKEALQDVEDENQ
UniProt Q8NBI6: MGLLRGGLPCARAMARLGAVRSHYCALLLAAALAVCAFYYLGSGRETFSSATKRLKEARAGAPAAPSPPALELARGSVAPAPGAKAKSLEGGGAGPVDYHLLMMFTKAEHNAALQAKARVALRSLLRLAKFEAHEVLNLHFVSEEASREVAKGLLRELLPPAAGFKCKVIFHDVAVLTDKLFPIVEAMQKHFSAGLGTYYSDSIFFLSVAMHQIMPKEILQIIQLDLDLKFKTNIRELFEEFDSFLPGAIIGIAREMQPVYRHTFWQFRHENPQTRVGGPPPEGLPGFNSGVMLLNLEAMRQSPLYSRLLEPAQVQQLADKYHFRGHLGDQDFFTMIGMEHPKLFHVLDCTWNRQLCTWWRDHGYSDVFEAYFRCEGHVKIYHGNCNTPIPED
UniProt O95625: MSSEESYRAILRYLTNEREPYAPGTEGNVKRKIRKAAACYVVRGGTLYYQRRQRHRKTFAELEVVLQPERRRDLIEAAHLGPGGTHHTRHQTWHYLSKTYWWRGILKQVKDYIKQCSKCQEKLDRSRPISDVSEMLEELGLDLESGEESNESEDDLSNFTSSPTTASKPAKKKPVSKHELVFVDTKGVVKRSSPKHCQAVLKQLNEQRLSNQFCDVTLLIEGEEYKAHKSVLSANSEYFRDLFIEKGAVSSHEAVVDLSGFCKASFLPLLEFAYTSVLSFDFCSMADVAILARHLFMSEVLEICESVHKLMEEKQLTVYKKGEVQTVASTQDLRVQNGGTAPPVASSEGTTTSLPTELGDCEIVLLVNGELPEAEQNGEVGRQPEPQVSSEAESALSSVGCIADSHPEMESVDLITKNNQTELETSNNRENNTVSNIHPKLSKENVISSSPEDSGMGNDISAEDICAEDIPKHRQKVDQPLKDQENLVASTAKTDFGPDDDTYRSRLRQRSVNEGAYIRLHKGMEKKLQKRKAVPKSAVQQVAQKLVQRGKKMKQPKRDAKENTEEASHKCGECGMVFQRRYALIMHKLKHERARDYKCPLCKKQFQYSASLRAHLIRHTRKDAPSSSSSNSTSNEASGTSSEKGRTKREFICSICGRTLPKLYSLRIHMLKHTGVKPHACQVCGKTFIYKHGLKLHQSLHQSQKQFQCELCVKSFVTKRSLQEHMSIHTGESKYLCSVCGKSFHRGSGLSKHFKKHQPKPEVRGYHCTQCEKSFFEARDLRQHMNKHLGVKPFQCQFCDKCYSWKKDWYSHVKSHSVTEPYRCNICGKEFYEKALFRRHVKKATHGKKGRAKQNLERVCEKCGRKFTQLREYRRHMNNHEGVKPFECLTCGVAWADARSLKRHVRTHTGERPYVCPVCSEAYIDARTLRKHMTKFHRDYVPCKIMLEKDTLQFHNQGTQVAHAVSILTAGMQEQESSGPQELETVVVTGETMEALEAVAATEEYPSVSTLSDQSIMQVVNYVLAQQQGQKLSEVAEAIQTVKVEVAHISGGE
UniProt Q86WB0: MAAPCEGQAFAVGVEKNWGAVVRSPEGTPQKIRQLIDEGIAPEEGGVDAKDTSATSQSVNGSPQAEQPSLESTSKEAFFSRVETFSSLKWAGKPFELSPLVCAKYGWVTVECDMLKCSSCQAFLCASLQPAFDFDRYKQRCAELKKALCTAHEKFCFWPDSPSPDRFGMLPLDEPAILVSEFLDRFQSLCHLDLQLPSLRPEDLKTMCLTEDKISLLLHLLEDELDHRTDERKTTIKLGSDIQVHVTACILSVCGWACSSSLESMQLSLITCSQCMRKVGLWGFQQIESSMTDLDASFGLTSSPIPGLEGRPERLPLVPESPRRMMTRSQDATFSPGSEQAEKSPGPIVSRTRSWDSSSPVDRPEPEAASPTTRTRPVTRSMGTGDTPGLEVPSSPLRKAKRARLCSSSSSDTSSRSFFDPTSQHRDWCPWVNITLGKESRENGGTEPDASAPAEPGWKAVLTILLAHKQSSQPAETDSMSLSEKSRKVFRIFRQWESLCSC
UniProt Q9HAV4: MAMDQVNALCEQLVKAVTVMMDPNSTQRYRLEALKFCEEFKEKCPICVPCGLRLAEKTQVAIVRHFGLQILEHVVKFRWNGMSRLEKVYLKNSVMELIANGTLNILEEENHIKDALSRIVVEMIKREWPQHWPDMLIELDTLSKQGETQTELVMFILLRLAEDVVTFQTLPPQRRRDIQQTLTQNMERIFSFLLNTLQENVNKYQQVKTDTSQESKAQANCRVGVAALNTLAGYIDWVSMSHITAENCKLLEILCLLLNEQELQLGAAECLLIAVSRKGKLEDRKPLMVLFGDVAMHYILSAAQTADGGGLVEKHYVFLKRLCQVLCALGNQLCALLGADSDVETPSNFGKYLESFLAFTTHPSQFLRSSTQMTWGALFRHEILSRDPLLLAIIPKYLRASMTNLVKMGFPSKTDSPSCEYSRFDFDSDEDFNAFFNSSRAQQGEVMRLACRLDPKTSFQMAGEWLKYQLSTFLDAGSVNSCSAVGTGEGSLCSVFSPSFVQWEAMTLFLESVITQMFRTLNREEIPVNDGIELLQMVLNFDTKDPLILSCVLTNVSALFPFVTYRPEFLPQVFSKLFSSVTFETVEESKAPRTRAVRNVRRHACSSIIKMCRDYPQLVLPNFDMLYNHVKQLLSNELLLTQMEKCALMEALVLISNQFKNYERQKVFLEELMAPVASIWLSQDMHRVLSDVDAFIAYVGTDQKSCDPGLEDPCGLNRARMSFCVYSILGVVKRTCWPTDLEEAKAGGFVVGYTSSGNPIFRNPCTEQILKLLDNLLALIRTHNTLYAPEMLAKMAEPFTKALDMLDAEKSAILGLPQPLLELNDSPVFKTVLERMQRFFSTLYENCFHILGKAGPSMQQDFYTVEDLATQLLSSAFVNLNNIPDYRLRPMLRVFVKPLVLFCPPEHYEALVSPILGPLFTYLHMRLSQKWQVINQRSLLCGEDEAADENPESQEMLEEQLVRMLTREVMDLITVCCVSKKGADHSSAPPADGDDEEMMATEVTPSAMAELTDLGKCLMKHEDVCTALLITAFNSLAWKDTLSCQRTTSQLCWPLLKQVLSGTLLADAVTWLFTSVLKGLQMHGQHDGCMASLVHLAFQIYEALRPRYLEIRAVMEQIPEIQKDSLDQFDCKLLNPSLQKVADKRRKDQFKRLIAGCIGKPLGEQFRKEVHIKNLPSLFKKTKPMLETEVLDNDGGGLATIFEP
UniProt P13010: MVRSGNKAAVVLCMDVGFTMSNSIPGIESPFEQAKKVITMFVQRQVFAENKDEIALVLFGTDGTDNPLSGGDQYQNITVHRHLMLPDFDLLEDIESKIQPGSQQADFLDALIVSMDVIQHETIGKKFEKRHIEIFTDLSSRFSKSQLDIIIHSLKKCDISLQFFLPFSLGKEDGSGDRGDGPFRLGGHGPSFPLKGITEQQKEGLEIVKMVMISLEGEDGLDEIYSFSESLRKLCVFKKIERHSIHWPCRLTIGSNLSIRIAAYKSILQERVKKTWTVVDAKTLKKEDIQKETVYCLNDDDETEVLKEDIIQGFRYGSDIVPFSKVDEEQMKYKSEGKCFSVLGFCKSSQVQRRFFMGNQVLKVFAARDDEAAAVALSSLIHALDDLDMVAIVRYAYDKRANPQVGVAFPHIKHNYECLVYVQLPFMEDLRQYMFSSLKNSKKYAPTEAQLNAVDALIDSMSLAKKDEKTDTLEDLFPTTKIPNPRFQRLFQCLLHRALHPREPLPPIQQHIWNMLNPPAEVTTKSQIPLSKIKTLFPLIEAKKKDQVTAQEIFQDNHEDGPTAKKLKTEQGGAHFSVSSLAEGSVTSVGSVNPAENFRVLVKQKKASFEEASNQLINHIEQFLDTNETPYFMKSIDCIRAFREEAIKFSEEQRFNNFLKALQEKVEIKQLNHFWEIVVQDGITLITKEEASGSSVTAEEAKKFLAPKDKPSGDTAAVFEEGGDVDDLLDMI
UniProt Q96QU8: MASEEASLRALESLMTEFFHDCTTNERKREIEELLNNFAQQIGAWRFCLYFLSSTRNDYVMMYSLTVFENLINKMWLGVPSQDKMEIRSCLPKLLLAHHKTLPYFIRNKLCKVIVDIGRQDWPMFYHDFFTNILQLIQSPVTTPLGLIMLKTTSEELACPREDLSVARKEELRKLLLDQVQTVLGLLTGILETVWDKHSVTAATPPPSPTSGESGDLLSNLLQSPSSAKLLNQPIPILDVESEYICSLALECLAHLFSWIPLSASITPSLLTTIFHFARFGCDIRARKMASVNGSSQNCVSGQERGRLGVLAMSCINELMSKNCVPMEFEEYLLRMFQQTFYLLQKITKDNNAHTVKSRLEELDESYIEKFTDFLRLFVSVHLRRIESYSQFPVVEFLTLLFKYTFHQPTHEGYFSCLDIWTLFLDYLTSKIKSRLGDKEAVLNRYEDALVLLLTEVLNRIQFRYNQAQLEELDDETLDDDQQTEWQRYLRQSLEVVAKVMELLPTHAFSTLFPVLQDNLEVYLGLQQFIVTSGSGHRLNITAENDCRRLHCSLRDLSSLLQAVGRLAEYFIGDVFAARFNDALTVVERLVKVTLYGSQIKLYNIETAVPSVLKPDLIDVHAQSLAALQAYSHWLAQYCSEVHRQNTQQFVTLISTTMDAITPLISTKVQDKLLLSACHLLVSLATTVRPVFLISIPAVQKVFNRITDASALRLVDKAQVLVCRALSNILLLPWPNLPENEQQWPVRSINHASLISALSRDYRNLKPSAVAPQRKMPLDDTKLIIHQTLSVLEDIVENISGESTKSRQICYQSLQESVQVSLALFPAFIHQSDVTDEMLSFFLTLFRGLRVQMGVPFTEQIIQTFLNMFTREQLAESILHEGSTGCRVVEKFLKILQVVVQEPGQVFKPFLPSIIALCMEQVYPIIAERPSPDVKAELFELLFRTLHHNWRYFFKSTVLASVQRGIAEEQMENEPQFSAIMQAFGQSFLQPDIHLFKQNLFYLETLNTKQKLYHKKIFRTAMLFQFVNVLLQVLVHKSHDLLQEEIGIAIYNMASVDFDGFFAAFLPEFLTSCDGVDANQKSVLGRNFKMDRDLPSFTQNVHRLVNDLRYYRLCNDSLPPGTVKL

Target | probe-labelled cysteine peptide fold change (10 µM) | probe-labelled cysteine peptide fold change (50 µM)
ZCCHC7_Q8N3Z6_296_MLDHSCLFR (UniProt Q8N3Z6) | -0.0958 | -0.31
ZC3H4_Q9UPT8_433_FYITGFCAR (UniProt Q9UPT8) | 0.111 | 0.0102
ZCCHC2_Q9C0B9_305_GGPEDAEVEVEPCK (UniProt Q9C0B9) | -0.104 | -0.485
YARS_P54577_67_AGCEVTILFADLHAYLDNMK (UniProt P54577) | 0.259 | 0.586
YWHAE_P62258_97_LICCDILDVLDK (UniProt P62258) | 0.0247 | -0.362
XXYLT1_Q8NBI6_386_IYHGNCNTPIPED (UniProt Q8NBI6) | -0.00561 | -0.0309
YWHAE_P62258_97+98_LICCDILDVLDK (UniProt P62258) | -0.0595 | -0.303
ZC3HAV1_Q7Z2W4_168_QQICNQQPPCSR (UniProt Q7Z2W4) | 0.0782 | -0.158
ZC3H14_Q6PJT7_634_CLFVHPNCK (UniProt Q6PJT7) | 0.165 | -0.196
ZBTB11_O95625_796_HLGVKPFQCQFCDK (UniProt O95625) | 0.085 | -0.175
ZC3H14_Q6PJT7_622_NGDECAYHHPISPCK (UniProt Q6PJT7) | 0.0775 | -0.061
YEATS2_Q9ULM3_1173_SEDASCFSAK (UniProt Q9ULM3) | -0.295 | -0.0796
ZC3HC1_Q86WB0_5_AAPCEGQAFAVGVEK (UniProt Q86WB0) | -0.353 | -0.54
ZC3H14_Q6PJT7_652_CTKPDCPFTHVSR (UniProt Q6PJT7) | 0.212 | 0.138
ZC3H13_Q5T200_42_LGPSTGSTAETQCR (UniProt Q5T200) | -0.0682 | -0.125
XXYLT1_Q8NBI6_350_LFHVLDCTWNR (UniProt Q8NBI6) | 0.0185 | 0.0995
ZCCHC3_Q9NUD5_356+366_CGEEGHLSPYCR (UniProt Q9NUD5) | -0.00844 | -0.0651

Copied from the results shown for reference:
Target | probe-labelled cysteine peptide fold change (10 µM) | probe-labelled cysteine peptide fold change (50 µM)
ZC3H4_Q9UPT8_433_FYITGFCAR (UniProt Q9UPT8) | 0.111 | 0.0102
ZCCHC2_Q9C0B9_305_GGPEDAEVEVEPCK (UniProt Q9C0B9) | -0.104 | -0.485

(listing goes on)

Target | probe-labelled cysteine peptide fold change (10 µM) | probe-labelled cysteine peptide fold change (50 µM)
XPO5_Q9HAV4_221_AQANCR (UniProt Q9HAV4) | 0.071 | 0.419
ZC3HAV1L_Q96H79_125_DCWSTCTLSHDIHTPVNMQVLK (UniProt Q96H79) | -0.0871 | -0.603
ZBTB11_O95625_943_DYVPCK (UniProt O95625) | -0.172 | -0.425
XPO5_Q9HAV4_1131_DSLDQFDCK (UniProt Q9HAV4) | -0.325 | -0.499
XRCC5_P13010_296_ETVYCLNDDDETEVLKEDIIQGFR (UniProt P13010) | -0.272 | -0.189
ZBTB1_Q9Y2K1_532_HSACPFR (UniProt Q9Y2K1) | 0.00859 | -0.174
ZBED4_O75132_1124_FLGCPPSIVPSEK (UniProt O75132) | -0.0503 | 0.183
ZBTB14_O43829_391_PFVCGSCTK (UniProt O43829) | 0.104 | -0.263
ZFAND1_Q8TCF1_184_SKPMFFCHR (UniProt Q8TCF1) | -0.012 | -0.351
XPO4_Q9C0E2_723_ANLVIQCENWWNLAK (UniProt Q9C0E2) | 0.102 | -0.0501
ZFAND3_Q9H8U3_181_CGYVFCMLHR (UniProt Q9H8U3) | -0.278 | -0.353
XRN2_Q9H0D6_296_HDELADSLPCAEGEFIFLR (UniProt Q9H0D6) | 0.234 | 0.125
ZFAND2B_Q8WV99_134_HRHPLDHDCSGEGHPTSR (UniProt Q8WV99) | -0.148 | 0.178
XPO6_Q96QU8_547_LNITAENDCR (UniProt Q96QU8) | 0.114 | -0.0152
XPO6_Q96QU8_22_ALESLMTEFFHDCTTNER (UniProt Q96QU8) | -0.187 | -0.00142
XRCC1_P18887_132_IVCSQPYSK (UniProt P18887) | -0.0642 | -0.124
XRCC5_P13010_157_KCDISLQFFLPFSLGK (UniProt P13010) | -0.0246 | 0.157

Source: the supplement of paper PMC12067093, “Discovery and optimisation of a covalent ligand for TRIM25 and its application to targeted protein ubiquitination” (Chemical Science, 2025)
